In PMC9023524:
No constants are given. Whether binding was seen depends on the method and setting. Binding seen in cells or lysates may run through a third protein. Some entries that bind do so weakly or less than the wild type.

Sequences of proteins named here, by UniProt entry; tags and fusion partners are left off.
UniProt Q70KF4: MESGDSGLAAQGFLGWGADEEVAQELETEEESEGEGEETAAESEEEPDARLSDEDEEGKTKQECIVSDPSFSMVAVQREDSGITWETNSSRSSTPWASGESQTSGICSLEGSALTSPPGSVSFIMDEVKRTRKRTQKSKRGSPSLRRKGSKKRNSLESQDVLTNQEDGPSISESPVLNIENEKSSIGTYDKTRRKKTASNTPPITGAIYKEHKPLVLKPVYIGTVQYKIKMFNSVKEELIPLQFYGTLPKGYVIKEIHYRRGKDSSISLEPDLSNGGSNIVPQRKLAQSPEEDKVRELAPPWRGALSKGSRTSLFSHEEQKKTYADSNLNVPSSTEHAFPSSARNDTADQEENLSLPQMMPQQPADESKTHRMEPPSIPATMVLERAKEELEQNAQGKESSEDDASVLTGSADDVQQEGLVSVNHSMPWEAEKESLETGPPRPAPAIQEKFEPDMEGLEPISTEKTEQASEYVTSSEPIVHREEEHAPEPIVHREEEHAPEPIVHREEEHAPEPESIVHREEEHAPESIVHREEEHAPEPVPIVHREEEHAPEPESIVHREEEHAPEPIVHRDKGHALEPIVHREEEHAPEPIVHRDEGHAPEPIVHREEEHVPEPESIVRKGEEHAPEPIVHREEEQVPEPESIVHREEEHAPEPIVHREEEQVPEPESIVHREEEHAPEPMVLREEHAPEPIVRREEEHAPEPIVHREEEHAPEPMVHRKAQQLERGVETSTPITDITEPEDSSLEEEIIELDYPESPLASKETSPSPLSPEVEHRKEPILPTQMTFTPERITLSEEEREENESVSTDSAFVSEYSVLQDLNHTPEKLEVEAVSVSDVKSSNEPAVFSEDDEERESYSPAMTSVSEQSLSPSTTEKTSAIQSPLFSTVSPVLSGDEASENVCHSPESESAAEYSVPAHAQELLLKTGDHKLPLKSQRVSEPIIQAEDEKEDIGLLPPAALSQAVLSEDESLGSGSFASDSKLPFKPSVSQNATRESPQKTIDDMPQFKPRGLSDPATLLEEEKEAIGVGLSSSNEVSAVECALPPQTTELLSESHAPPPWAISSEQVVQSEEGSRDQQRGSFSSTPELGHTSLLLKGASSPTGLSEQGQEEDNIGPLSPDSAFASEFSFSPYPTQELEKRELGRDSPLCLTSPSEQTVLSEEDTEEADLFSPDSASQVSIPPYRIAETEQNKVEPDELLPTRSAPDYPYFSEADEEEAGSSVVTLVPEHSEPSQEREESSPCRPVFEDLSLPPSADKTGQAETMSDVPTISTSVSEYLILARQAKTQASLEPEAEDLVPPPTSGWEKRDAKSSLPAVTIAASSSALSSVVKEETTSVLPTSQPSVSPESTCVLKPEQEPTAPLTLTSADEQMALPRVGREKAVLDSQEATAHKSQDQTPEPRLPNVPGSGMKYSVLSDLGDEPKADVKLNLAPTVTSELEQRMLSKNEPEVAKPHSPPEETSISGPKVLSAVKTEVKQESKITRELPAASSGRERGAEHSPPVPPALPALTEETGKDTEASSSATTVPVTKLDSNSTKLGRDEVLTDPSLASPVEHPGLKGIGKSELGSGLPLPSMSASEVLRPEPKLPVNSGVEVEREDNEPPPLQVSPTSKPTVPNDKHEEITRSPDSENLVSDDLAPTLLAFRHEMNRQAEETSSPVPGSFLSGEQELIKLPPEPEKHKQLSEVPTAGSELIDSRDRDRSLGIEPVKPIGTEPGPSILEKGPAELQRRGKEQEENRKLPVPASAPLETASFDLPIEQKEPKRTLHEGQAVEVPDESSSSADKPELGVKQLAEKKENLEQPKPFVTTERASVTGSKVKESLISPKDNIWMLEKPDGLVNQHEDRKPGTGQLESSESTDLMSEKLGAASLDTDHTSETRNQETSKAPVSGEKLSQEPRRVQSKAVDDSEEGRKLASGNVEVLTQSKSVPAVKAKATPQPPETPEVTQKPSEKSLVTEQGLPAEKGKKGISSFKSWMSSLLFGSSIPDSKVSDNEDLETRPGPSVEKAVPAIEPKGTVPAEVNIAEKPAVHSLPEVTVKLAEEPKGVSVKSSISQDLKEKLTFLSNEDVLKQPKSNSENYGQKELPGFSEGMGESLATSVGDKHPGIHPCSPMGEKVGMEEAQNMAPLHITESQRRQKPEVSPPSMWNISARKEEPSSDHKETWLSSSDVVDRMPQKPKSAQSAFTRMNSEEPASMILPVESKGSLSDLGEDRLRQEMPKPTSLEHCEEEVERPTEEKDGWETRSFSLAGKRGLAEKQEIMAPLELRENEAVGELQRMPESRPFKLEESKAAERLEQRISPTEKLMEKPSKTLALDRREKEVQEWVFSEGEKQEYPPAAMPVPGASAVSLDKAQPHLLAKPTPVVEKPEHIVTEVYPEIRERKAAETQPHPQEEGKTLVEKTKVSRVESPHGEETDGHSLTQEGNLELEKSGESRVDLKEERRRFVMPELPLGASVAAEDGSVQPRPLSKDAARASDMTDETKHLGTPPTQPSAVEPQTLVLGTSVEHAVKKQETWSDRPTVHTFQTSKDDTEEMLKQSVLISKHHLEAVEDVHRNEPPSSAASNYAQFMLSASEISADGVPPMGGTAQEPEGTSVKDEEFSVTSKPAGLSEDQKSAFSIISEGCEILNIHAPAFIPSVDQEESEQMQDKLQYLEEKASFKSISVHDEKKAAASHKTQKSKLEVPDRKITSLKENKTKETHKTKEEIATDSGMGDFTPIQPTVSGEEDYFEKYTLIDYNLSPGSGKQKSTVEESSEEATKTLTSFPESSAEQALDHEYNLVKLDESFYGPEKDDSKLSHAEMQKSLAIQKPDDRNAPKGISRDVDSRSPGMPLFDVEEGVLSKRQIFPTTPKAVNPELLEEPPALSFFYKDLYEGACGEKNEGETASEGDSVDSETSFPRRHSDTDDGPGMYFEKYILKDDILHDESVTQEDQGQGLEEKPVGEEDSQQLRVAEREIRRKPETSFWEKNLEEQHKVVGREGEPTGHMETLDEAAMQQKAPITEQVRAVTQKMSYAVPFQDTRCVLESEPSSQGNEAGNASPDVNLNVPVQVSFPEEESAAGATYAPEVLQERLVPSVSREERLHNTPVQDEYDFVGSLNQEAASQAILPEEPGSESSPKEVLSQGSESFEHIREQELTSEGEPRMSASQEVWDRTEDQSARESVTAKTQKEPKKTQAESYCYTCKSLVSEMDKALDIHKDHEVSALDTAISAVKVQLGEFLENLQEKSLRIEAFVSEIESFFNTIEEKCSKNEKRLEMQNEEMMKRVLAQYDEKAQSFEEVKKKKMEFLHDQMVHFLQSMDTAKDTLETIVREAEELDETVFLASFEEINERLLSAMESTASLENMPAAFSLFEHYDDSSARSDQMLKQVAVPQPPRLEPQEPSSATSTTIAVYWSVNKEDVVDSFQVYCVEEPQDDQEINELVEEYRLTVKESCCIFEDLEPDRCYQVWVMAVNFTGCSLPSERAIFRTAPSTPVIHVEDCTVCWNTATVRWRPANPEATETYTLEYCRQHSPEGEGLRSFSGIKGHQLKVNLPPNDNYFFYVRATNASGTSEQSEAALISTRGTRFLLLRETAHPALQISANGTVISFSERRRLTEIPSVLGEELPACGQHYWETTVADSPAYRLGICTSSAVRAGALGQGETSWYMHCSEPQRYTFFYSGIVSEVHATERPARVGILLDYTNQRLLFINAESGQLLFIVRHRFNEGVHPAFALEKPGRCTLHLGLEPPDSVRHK

Molecular target: RYR2 (mouse (endogenous in mouse heart)) (UniProt E9Q401)
Test: proximity ligation; Duolink In Situ Red PLA (mouse/rabbit) with RYR2 and CMYA5 antibodies on 4% PFA-fixed, Triton X-100-permeabilised adult mouse cardiomyocytes; detects proteins closer than 40 nm

- binding: binds
Substance: CMYA5 (cardiomyopathy-associated protein 5) (from UniProt Q70KF4 1-3739)
